The text below walks through data of publication PMC7862700.

Sequences of proteins named here, by UniProt entry; tags and fusion partners are left off. A change or cut given only in a name is not applied to a line headed by its entry.
UniProt Q00613: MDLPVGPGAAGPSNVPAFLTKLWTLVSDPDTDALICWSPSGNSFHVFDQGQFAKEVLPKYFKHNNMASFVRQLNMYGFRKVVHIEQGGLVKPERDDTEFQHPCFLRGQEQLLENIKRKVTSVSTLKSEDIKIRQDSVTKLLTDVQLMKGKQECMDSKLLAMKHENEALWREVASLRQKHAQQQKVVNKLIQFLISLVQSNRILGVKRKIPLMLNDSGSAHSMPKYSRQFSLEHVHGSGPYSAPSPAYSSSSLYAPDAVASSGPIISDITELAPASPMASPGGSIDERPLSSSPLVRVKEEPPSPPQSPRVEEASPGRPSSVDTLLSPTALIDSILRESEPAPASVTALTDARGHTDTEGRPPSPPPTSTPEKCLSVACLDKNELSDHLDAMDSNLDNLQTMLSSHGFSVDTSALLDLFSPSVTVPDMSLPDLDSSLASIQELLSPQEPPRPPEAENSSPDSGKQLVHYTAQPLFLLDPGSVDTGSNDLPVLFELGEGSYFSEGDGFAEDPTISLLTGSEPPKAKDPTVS

Only a part is listed here, and it is no random draw. For part of these data: At the low end of the ranking, values are background and their order means little. Some of the results follow. For part of these data: Construct or isoform of the protein are uncertain.

For one test, the target named is HSF1 (UniProt Q00613). The experiment in a line: DAPPL (digital affinity profiling via proximity ligation, sequencing). To be noted: 10 mM Tris-HCl pH 7.5, 50 mM NaCl, 1 mM DTT, 4% glycerol, room temperature, 30 min; GST-TFs on glutathione beads, 16-mer random dsDNA library, 0.1% …; high values mean tight binding; double strand, one strand shown; scale: fold enrichment (6-mer frequency, TF over GST control).

Another test concerns the target T1, ELF2 (UniProt Q15723).
T1 sequence: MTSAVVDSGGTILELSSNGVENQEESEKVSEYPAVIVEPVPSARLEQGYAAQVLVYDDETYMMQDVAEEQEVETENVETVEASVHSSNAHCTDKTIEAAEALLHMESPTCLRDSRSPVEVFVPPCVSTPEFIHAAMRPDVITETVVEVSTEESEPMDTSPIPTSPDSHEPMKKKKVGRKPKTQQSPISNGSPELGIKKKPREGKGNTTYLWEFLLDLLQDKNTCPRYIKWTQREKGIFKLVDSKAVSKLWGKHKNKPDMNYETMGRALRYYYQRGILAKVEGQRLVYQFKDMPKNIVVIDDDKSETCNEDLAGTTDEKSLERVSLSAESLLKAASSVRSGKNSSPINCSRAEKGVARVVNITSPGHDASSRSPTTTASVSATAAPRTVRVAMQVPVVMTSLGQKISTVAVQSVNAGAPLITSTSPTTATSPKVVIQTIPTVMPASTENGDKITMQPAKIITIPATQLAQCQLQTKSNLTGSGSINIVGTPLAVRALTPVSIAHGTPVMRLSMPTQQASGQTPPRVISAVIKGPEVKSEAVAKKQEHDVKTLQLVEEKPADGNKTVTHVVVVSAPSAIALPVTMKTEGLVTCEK
The test is described as above. To be noted: 10 mM Tris-HCl pH 7.5, 50 mM NaCl, 1 mM DTT, 4% glycerol, room temperature, 30 min; GST-TFs on glutathione beads, 16-mer random dsDNA library, 0.1% …; high values mean tight binding; double strand, one strand shown; scale: fold enrichment (6-mer frequency, TF over GST control).

For CATCGG, the binding signal came to 0.641 with HSF1 and 0.633 in the test with ELF2.
In the same order, the values of ACAGAG are 0.678 and 0.722.
For GAGGGC, in that order: 0.503 and 0.577.
For GCGCAA, in that order: 0.788 and 0.834.
Take CGTGGA: the figures for the binding signal with HSF1 and with ELF2 were 0.658 and 0.538, respectively.
With GGACCG, the values for the binding signal in the test with HSF1 and in the test with ELF2 were 0.581 and 0.822, respectively.
For GGCGAG, the binding signal was found to be 0.464 with HSF1 and 0.498 with ELF2.
In the same order, the values of GAGTAA are 0.629 and 0.539.
For CGTAAG, in that order: 0.84 and 0.706.
For CGGTCC, the results for the binding signal in the test with HSF1 and in the test with ELF2 were 0.602 and 0.935, respectively.
Take GAGACC: the binding signal was 0.133 in the test with HSF1 and 0.202 with ELF2.
For GACAGT, in that order: 0.39 and 0.433.
AGTGAA: the results for the binding signal with HSF1 and with ELF2 were 0.817 and 0.928, respectively.
In the same order, the values of GTGAGT are 0.138 and 0.125.
In the same order, the values of AGTAAG are 0.828 and 0.78.
For GCCAAG, in that order: 0.777 and 0.82.
Consider GGTAGC, for which the binding signal in the test with HSF1 worked out at 0.623; with ELF2, 0.817.
For CGTTGA, in that order: 0.735 and 0.757.
For AGGGGG, in that order: 0.543 and 0.559.
As to GGGAGT, the figures for the binding signal with HSF1 and with ELF2 were 0.209 and 0.235, respectively.
On to CCTGAG, for which the values for the binding signal in the test with HSF1 and with ELF2 were 0.743 and 0.809, respectively.
In the same order, the values of GGGGGG are 0.412 and 0.546.
For the sequence GGGAGA, the values for the binding signal with HSF1 and with ELF2 were 0.359 and 0.324, respectively.
As to GAGCGG, the binding signal came out at 0.401 with HSF1 and 0.526 in the test with ELF2.
For AGGGTG, in that order: 0.629 and 0.711.
For GAGGCA, in that order: 0.393 and 0.424.
Turning to GGACGG, the binding signal in the test with HSF1 was determined as 0.407; in the test with ELF2, 0.489.
For ACAGGC, in that order: 0.559 and 0.642.
For CGTGCT, in that order: 0.79 and 0.817.
As to AGGATC, the binding signal was 1.08 with HSF1 and 0.836 with ELF2.
GTGTGC: the binding signal in the test with HSF1 came out at 0.634; with ELF2, 0.885.
In the same order, the values of CGGGAT are 0.698 and 0.684.
In the same order, the values of GTAGGA are 0.519 and 0.669.
In the same order, the values of GTCGGC are 0.321 and 0.369.
Regarding GTGAAT, the binding signal with HSF1 came out at 0.812; in the test with ELF2, 0.825.
GCTGTG: the binding signal is 0.549 with HSF1 and 0.637 with ELF2.
In the same order, the values of CCGGGC are 0.564 and 0.882.
For GGGCAC, in that order: 0.564 and 0.745.
In the same order, the values of TGTGTA are 0.729 and 0.805.
With GTGTAG, the binding signal with HSF1 worked out at 0.58; with ELF2 it was 0.627.
In the same order, the values of GCCGTT are 0.704 and 0.745.
For ACGAGA, in that order: 1.14 and 0.64.
For TGGGGA, the binding signal with HSF1 worked out at 0.789; in the test with ELF2, 0.77.
In the same order, the values of ATCGTA are 0.908 and 0.814.
On to TTAGAC, for which the binding signal was found to be 1.1 with HSF1 and 0.81 with ELF2.
For TCGGCG, in that order: 0.502 and 0.5.
AGGGGC: the results for the binding signal with HSF1 and with ELF2 were 0.635 and 0.726, respectively.
In the same order, the values of GGTCGG are 0.199 and 0.264.
In the case of GATCCG, the binding signal with HSF1 was found to be 0.886; in the test with ELF2, 1.02.
For GAAGGC, in that order: 0.837 and 0.945.
Regarding GGGGAG, the binding signal in the test with HSF1 stood at 0.329; with ELF2, 0.38.
Take GAGGAG: the figures for the binding signal in the test with HSF1 and with ELF2 were 0.209 and 0.213, respectively.
AGTTGT: the binding signal with HSF1 was 0.645; with ELF2, 0.822.
Turning to ATCGGC, the figures for the binding signal with HSF1 and in the test with ELF2 were 0.704 and 0.628, respectively.
TCGGCC: the binding signal is 0.699 with HSF1 and 0.724 in the test with ELF2.
On to CCCGTG, for which the results for the binding signal with HSF1 and with ELF2 were 0.483 and 0.511, respectively.
In the same order, the values of GAGATT are 1.25 and 0.715.
For CCCAGG, in that order: 0.621 and 0.752.
For GGCGTG, the results for the binding signal with HSF1 and with ELF2 were 0.282 and 0.314, respectively.
For GCCGGG, in that order: 0.346 and 0.364.
For GGAAAG, in that order: 1.29 and 0.975.
As for TGTCGT, the binding signal with HSF1 worked out at 0.694; with ELF2, 0.844.
In the same order, the values of GCCATG are 0.653 and 0.726.
In the same order, the values of CGGCCA are 0.651 and 0.75.
In the case of GGTCGA, the binding signal with HSF1 is 0.707; in the test with ELF2 it was 0.696.
For AGAACG, the binding signal with HSF1 was 0.752; with ELF2, 0.451.
For GGCAGT, in that order: 0.386 and 0.522.
Take GAGTGA: the binding signal stood at 0.374 with HSF1 and 0.377 with ELF2.
GGGTAC: the figures for the binding signal with HSF1 and with ELF2 were 0.734 and 0.927, respectively.
TAGAGT: the results for the binding signal with HSF1 and in the test with ELF2 were 0.901 and 0.741, respectively.
As for GGACTG, the binding signal with HSF1 was 0.58; in the test with ELF2, 0.681.
Take CAAGGG: the binding signal with HSF1 turned out to be 0.764; in the test with ELF2, 0.837.
For GTCGCG, the binding signal with HSF1 was 0.595; with ELF2, 0.631.
As for GTGTCG, the values for the binding signal with HSF1 and with ELF2 were 0.474 and 0.618, respectively.
For CAGACA, the binding signal with HSF1 is 0.734; in the test with ELF2, 0.795.
In the same order, the values of TGCAGT are 0.65 and 0.779.
Regarding ACAGTG, the figures for the binding signal in the test with HSF1 and with ELF2 were 0.436 and 0.459, respectively.
For CAAGAC, in that order: 0.749 and 0.833.
In the same order, the values of AGCCGC are 0.803 and 0.87.
In the same order, the values of AGACAG are 0.489 and 0.495.
For the sequence AGTTCA, the binding signal with HSF1 came to 0.801; in the test with ELF2, 0.927.
Take AGGTTA: the binding signal came to 0.825 with HSF1 and 0.769 in the test with ELF2.
In the same order, the values of GCCAAA are 0.825 and 0.872.
As for ACAGTA, the binding signal worked out at 0.798 with HSF1 and 0.874 in the test with ELF2.
On to ATCAGT, for which the binding signal with HSF1 is 0.821; with ELF2, 0.828.
With CAGGGA, the binding signal with HSF1 is 0.505; with ELF2, 0.503.
As for CGCGGT, the binding signal with HSF1 came to 0.707; in the test with ELF2 it was 0.898.
For GAAGGG, in that order: 0.765 and 0.852.
For AAGAGG, in that order: 0.801 and 0.854.
For GATTGG, in that order: 0.824 and 0.815.
On to GGCACG, for which the binding signal came out at 0.711 in the test with HSF1 and 0.779 with ELF2.
With GATAGG, the binding signal with HSF1 was found to be 0.757; with ELF2, 0.813.
For GAGCCC, in that order: 0.614 and 0.692.
For CTGGGA, in that order: 0.92 and 0.769.
In the same order, the values of GGAGAA are 0.475 and 0.312.
Take GAGTCT: the binding signal in the test with HSF1 was found to be 0.437; with ELF2, 0.392.
Consider GTCGAA, for which the binding signal with HSF1 is 0.799; in the test with ELF2 it was 0.577.
For GAGGGT, in that order: 0.519 and 0.498.
In the same order, the values of AGATCG are 0.561 and 0.464.
In the same order, the values of AGTCGC are 0.456 and 0.467.
For ACTGTG, the figures for the binding signal with HSF1 and in the test with ELF2 were 0.397 and 0.453, respectively.
For ATCAGG, in that order: 0.903 and 0.993.
For GCAAGG, in that order: 0.657 and 0.794.
Regarding GTTAGA, the results for the binding signal with HSF1 and with ELF2 were 0.768 and 0.729, respectively.
For CGCAGG, in that order: 0.667 and 0.838.
On to GAGACT, for which the binding signal with HSF1 amounted to 0.441; with ELF2 it was 0.379.
As for GGCAGA, the values for the binding signal with HSF1 and in the test with ELF2 were 0.603 and 0.601, respectively.
Turning to AGACGC, the binding signal turned out to be 0.637 in the test with HSF1 and 0.683 with ELF2.
GGAGAT: the binding signal with HSF1 came to 0.377; with ELF2, 0.312.
For CGGGGA, in that order: 0.4 and 0.413.
For GAGAAC, the binding signal in the test with HSF1 is 0.752; with ELF2 it was 0.402.
In the same order, the values of AAGACC are 0.863 and 0.858.
In the same order, the values of CACGTC are 0.626 and 0.852.
GTCGCA: the binding signal was found to be 0.558 with HSF1 and 0.7 in the test with ELF2.
For AGGTAC, in that order: 0.785 and 0.929.
In the same order, the values of CACAGG are 0.683 and 0.876.
Take TGGGCC: the binding signal with HSF1 is 0.678; with ELF2, 0.855.
GGTGTC: the binding signal in the test with HSF1 is 0.539; with ELF2, 0.752.
For GTCGGT, in that order: 0.218 and 0.265.
Take GGGGGC: the figures for the binding signal with HSF1 and in the test with ELF2 were 0.464 and 0.582, respectively.
